Measured data: PubChem BioAssay AID1224830 (NIAID, 2016)
This is one part, drawn at random, of about 18,000 reagents tested. In the full data, about 2,900 (16%) are marked active. 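Calls are made per well; low scores hint the gene aids the LPS response, high scores that it dampens it.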 Repeated entries: four replicate wells of each siRNA pool.

Purpose: 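Genes whose knock-down alters the TNF-alpha reporter response to LPS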 (primary screen)
Cell system: human THP-1 monocytic leukaemia cells, TNF dual-luciferase reporter clone, PMA-differentiated to macrophage-like cells
Reagents: siRNA pool against human genes, 50 nM
Timing: LPS for 4 h, given about 3 days after siRNA transfection
Challenge: bacterial LPS (TLR4 ligand), 10 ng/ml
Detection: 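TNF firefly reporter luminescence divided by renilla, normalised to the plate median, then turned into a robust z-score for each replicate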
Scale: TNF reporter robust z-score: higher = stronger TNF reporter response to LPS
Hit rule: 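Each well counts as active if its z-score is over 2.8 or under -1.5; controls are left without a call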

For SLC6A20, what was measured?
TNF reporter robust z-score: -1.6; outcome: active

How did the screen score SLC6A20?
TNF reporter robust z-score: -1.33; outcome: inactive

For SLC6A20, what was measured?
TNF reporter robust z-score: -0.53; outcome: inactive

With SLC6A20, what does the deposit list?
TNF reporter robust z-score: -0.78; outcome: inactive

For GATAD2B, what was measured?
TNF reporter robust z-score: 1.48; outcome: inactive

How did the screen score GATAD2B?
TNF reporter robust z-score: 1.7; outcome: inactive

With GATAD2B, how do the results read?
TNF reporter robust z-score: 1.51; outcome: inactive

How did the screen score GATAD2B?
TNF reporter robust z-score: 2.26; outcome: inactive

Which result is listed for SIGLEC11?
TNF reporter robust z-score: 8.14; outcome: active

Which result is listed for SIGLEC11?
TNF reporter robust z-score: -0.74; outcome: inactive

For SIGLEC11, what was measured?
TNF reporter robust z-score: -0.88; outcome: inactive

With SIGLEC11, how do the results read?
TNF reporter robust z-score: -1.58; outcome: active

Which result is listed for ANGPT4?
TNF reporter robust z-score: -0.13; outcome: inactive

For ANGPT4, how do the results read?
TNF reporter robust z-score: 0.99; outcome: inactive

For ANGPT4, what was measured?
TNF reporter robust z-score: 0.48; outcome: inactive

With ANGPT4, what was measured?
TNF reporter robust z-score: 0.61; outcome: inactive

For MTRR, what does the deposit list?
TNF reporter robust z-score: -0.76; outcome: inactive

For MTRR, what was measured?
TNF reporter robust z-score: 0.17; outcome: inactive

What did the screen give for MTRR?
TNF reporter robust z-score: -0.81; outcome: inactive

With MTRR, how do the results read?
TNF reporter robust z-score: -0.89; outcome: inactive

Which result is listed for HELLS?
TNF reporter robust z-score: 0.22; outcome: inactive

What did the screen give for HELLS?
TNF reporter robust z-score: 0.01; outcome: inactive

What is on record for HELLS?
TNF reporter robust z-score: -0.25; outcome: inactive

How did the screen score HELLS?
TNF reporter robust z-score: -0.1; outcome: inactive

For MACROD1, what was measured?
TNF reporter robust z-score: -0.42; outcome: inactive

How did the screen score MACROD1?
TNF reporter robust z-score: -0.4; outcome: inactive

Which result is listed for MACROD1?
TNF reporter robust z-score: 0.26; outcome: inactive

For MACROD1, what does the deposit list?
TNF reporter robust z-score: 0.83; outcome: inactive

Records above called active (3):
SLC6A20 | TNF reporter robust z-score = -1.6; outcome = active
SIGLEC11 | TNF reporter robust z-score = 8.14; outcome = active
SIGLEC11 | TNF reporter robust z-score = -1.58; outcome = active

Continued.
With CPXM2, how do the results read?
TNF reporter robust z-score: 1.13; outcome: inactive

With CPXM2, how do the results read?
TNF reporter robust z-score: 0.47; outcome: inactive

How did the screen score CPXM2?
TNF reporter robust z-score: 0.3; outcome: inactive

For CPXM2, how do the results read?
TNF reporter robust z-score: 0.18; outcome: inactive

With USH1C, how do the results read?
TNF reporter robust z-score: 0.38; outcome: inactive

How did the screen score USH1C?
TNF reporter robust z-score: 0.96; outcome: inactive

With USH1C, how do the results read?
TNF reporter robust z-score: 1.11; outcome: inactive

With USH1C, what does the deposit list?
TNF reporter robust z-score: 0.82; outcome: inactive

Which result is listed for RTF1?
TNF reporter robust z-score: 2.46; outcome: inactive

How did the screen score RTF1?
TNF reporter robust z-score: 1.5; outcome: inactive

For RTF1, how do the results read?
TNF reporter robust z-score: 0.89; outcome: inactive

For RTF1, how do the results read?
TNF reporter robust z-score: 0.68; outcome: inactive

Which result is listed for RNF216?
TNF reporter robust z-score: 0.73; outcome: inactive

For RNF216, what does the deposit list?
TNF reporter robust z-score: 0.12; outcome: inactive

With RNF216, how do the results read?
TNF reporter robust z-score: -0.41; outcome: inactive

With RNF216, how do the results read?
TNF reporter robust z-score: -0.3; outcome: inactive

With BLOC1S3, what was measured?
TNF reporter robust z-score: -2.26; outcome: active

What is on record for BLOC1S3?
TNF reporter robust z-score: -1.71; outcome: active

What did the screen give for BLOC1S3?
TNF reporter robust z-score: -2.04; outcome: active

What did the screen give for BLOC1S3?
TNF reporter robust z-score: -1.83; outcome: active
